Values quoted from earlier work in patent US11618765B2, “Broad-spectrum antiviral nucleoside derivatives” (priority 2020, dated 2023).
At least one compound was matched to its structure with a doubt left.

Tested on: HIV
Settings: cited from earlier work

In the case of CC(=O)c1cn([C@H]2C[C@H](O)[C@@H](CO)O2)c(=O)[nH]1 [imidine, 1-(2-deoxy-β-D-ribofuranosyl)-4-acetylimidazolin-2-one], the anti-HIV activity is listed as “selective anti-HIV activity”.
